PubChem BioAssay AID720505 | Drosophila RNAi Screening Center, 2013
Test: 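Knock-downs that reduce calcium influx once internal stores are emptied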 (primary screen). System: Drosophila S2R+ cells. Knock-down reagent: long dsRNA against Drosophila genes. Treatment: thapsigargin (2 µM) in calcium-free buffer to empty internal stores, then 2 mM calcium added back. Measured: 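Fluo-4 signal in 384-well plates read on a FLIPR after thapsigargin (2 µM, calcium-free) store depletion and 2 mM calcium add-back; unnormalised mean endpoint per well; screen run twice, selected wells retested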. Direction: calcium signal and retest calcium signal: higher = more calcium entry after store depletion. Call rule: 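Knock-downs counted as hits when calcium entry dropped relative to STIM1 positive and Rho1 negative controls present on each plate; roughly 1500 genes called, with reductions of differing size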. Meaning of the calls: active = called as lowering calcium entry; inactive = not called.
The deposit covers about 20,000 reagents; shown is an unselected part of those that have a named target and a result. In the full data, about 2,100 (10%) were called active. 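Raw plate signals without normalisation; calls rest on control-based scores that were not deposited; replicate 2 separates called from uncalled poorly.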 Names joined by + are all predicted targets of the reagent. The record does not give: the amount of reagent, the time to read-out.

no.	gene	amplicon	calcium signal, replicate 1	calcium signal, replicate 2	retest calcium signal, replicate 1	retest calcium signal, replicate 2	activity call
1	CG17344	DRSC02607	140	87.4			inactive
2	CG1602	DRSC06601	129	160			inactive
3	CG5793	DRSC15874	108	148			inactive
4	RpL22-like (Ribosomal protein L22-like)	DRSC04582	88.5	132			inactive
5	CG2839	DRSC00544	95.9	138			inactive
6	syd (sunday driver)	DRSC10963	84.8	88.1			inactive
7	CG1582	DRSC19732	144	78.7			inactive
8	Bap111 (Brahma associated protein 111kD)	DRSC18419	119	119	84.9	78	inactive
9	gig (gigas)	DRSC11351	86.8	86			inactive
10	CG9215	DRSC20171	78	93.9			inactive
11	mei-217 + mei-218	DRSC20349	110	163			inactive
12	CG33964 + CG13175	DRSC06300	124	105			inactive
13	CG33964 + CG13175	DRSC06301	81.3	139			inactive
14	CG33964 + CG13175	DRSC07184	123	181			inactive
15	wls (wntless)	DRSC10605	110	126			inactive
16	Nckx30C	DRSC02686	197	168			inactive
17	Nckx30C	DRSC02687	168	171			inactive
18	Nckx30C	DRSC02688	202	156			inactive
19	Nckx30C	DRSC02689	143	109			inactive
20	tbc (trabuco)	DRSC20540	177	95.2			inactive
21	tbc (trabuco)	DRSC23084	126	113			inactive
22	CG34408	DRSC17733	164	121			inactive
23	CG34408	DRSC21926	115	300			inactive
24	CG34408	DRSC23056	119	140			inactive
25	CG10910	DRSC06007	129	131	89.2	86.9	inactive
26	C3G (C3G guanyl-nucleotide exchange factor)	DRSC17745	158	86.9			inactive
27	C3G (C3G guanyl-nucleotide exchange factor)	DRSC17929	174	113			inactive
28	C3G (C3G guanyl-nucleotide exchange factor)	DRSC22329	109	245			inactive
29	C3G (C3G guanyl-nucleotide exchange factor)	DRSC23077	120	121			inactive
30	CG3281	DRSC15470	142	115			inactive
31	slam (slow as molasses)	DRSC03240	64.7	178			active
32	CG11068	DRSC19369	64	148			active
33	tkv + CR14033 + tRNA:Asp-GTC-2-1 + 1 more	DRSC00861	81.5	143	7290	120	inactive
34	Fst (Frost)	DRSC16491	122	115			inactive
35	CG42586 + CG31775	DRSC01413	164	124	117	112	inactive
36	CG13390	DRSC02261	157	181			inactive
37	Mco1 (Multicopper oxidase 1)	DRSC02720	159	166			inactive
38	CG13461	DRSC10008	106	160			inactive
39	CG8607	DRSC11012	89.7	68.6			inactive
40	CG13358	DRSC18534	92.5	117			inactive
41	CG42710	DRSC01034	156	110			inactive
42	CG11788	DRSC06084	166	128			inactive
43	CG6254	DRSC16002	102	141			inactive
44	Osi11 (Osiris 11)	DRSC12282	107	119			inactive
45	CG9410 + CG15908	DRSC04976	93.3	142			active
46	CG9410 + CG15908	DRSC05001	184	198			inactive
47	CG33189	DRSC21427	183	89.5			inactive
48	CG18268 + CG3014	DRSC15319	161	196			inactive
49	CG42542	DRSC15549	148	137			inactive
50	CG42542	DRSC22264	79.8	151			inactive
51	CG6931	DRSC10750	106	112			inactive
52	snk (snake)	DRSC17060	94.6	115			inactive
53	CG42697	DRSC05740	105	133			inactive
54	CAH1 + Adat1	DRSC02009	78.3	126			inactive
55	CG7156	DRSC16207	151	194			inactive
56	lectin-28C	DRSC03010	84.4	102			inactive
57	fd59A (forkhead domain 59A)	DRSC04685	70.3	178			active
58	CG16786	DRSC04281	85.8	130			inactive
59	Uba3 (Ubiquitin-like activating enzyme 3)	DRSC06377	188	136			inactive
60	RpL27 (Ribosomal protein L27)	DRSC15638	79.1	115			active
61	alpha-Man-Ic (alpha-Mannosidase class I c)	DRSC21674	154	90.8			inactive
62	CG30356	DRSC05119	60.5	73.4			active
63	Lsd-1 (Lipid storage droplet-1)	DRSC14236	222	263			inactive
64	wde (windei)	DRSC05955	152	110			inactive
65	CG18853	DRSC06795	83.3	98.4			inactive
66	CG5089	DRSC06914	140	89.3			inactive
67	Clc (Clathrin light chain)	DRSC11116	111	80.3			inactive
68	Gs2 (Glutamine synthetase 2)	DRSC20250	93	121			inactive
69	jim	DRSC11889	155	76.1			inactive
70	Myb (Myb oncogene-like)	DRSC20260	182	105			inactive
71	CG4461	DRSC10423	67.8	96.1			inactive
72	obst-F (obstructor-F)	DRSC10805	78.2	132			inactive
73	PLCXD	DRSC02427	95	88	90.4	116	inactive
74	Rtel1 (Regulator of telomere elongation helicase 1)	DRSC18343	200	155			inactive
75	CG15930	DRSC18107	70.3	126			active
76	Apl (Apollo)	DRSC10350	88.3	152			inactive
77	CG5768	DRSC15870	232	257			inactive
78	Sdr (Secreted decoy of InR)	DRSC15517	110	141			inactive
79	Pvf3 (PDGF- and VEGF-related factor 3)	DRSC02284	160	84.6			inactive
80	Pvf3 (PDGF- and VEGF-related factor 3)	DRSC02285	152	94.4			inactive
81	Pvf3 (PDGF- and VEGF-related factor 3)	DRSC02286	159	83.3			inactive
82	Pvf3 (PDGF- and VEGF-related factor 3)	DRSC02751	134	82			inactive
83	CG11151	DRSC19387	93.2	103			inactive
84	Nup54 (Nucleoporin 54kD)	DRSC07282	179	203			inactive
85	CG12219	DRSC17829	138	110			inactive
86	Set	DRSC16861	104	159			inactive
87	Pax (Paxillin)	DRSC01703	158	90.7			inactive
88	Pax (Paxillin)	DRSC02651	90.6	156			inactive
89	Pax (Paxillin)	DRSC02652	179	91.1			inactive
90	Mad1 (Mitotic arrest-deficient 1)	DRSC07561	154	101			inactive
91	CG10725	DRSC09788	95.4	70.3			inactive
92	Amun	DRSC19847	91.8	80.9			inactive
93	CG14377	DRSC14837	144	167			inactive
94	CG13727	DRSC10055	98.1	110			inactive
95	CG1598	DRSC06598	96.8	125			inactive
96	Sec6 (Secretory 6)	DRSC06932	154	102			inactive
97	CG1532	DRSC20516	195	103			inactive
98	Tret1-1 (Trehalose transporter 1-1)	DRSC07046	102	160			inactive
99	Tret1-1 (Trehalose transporter 1-1)	DRSC07048	97.2	208			inactive
100	Tsp26A (Tetraspanin 26A)	DRSC03135	188	116			inactive
101	Alg11 (ALG11, alpha-1,2-mannosyltransferase)	DRSC11647	135	95.4			inactive
102	Ir21a + asRNA:CR43609	DRSC00528	157	176			inactive
103	zetaCOP (Coat Protein (coatomer) zeta)	DRSC11412	66.9	136			active
104	CG14687	DRSC14910	149	133	101	124	inactive
105	Ilp4 (Insulin-like peptide 4)	DRSC10701	80.4	73.5			inactive
106	CG14401	DRSC02385	135	115			inactive
107	CG14401	DRSC21710	149	71.7			inactive
